{"source": "PubChem BioAssay AID1224826 (NIAID, 2016)", "assay": "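Knock-downs that raise or lower Tnf reporter signal after endotoxin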 (primary screen)", "cells": "RAW264.7 G9 macrophages from mouse bearing reporters for p65 (GFP) and the Tnf promoter (mCherry)", "knock-down reagent": "siRNA pool against mouse genes, 100 nM", "timing": "16 h of LPS stimulation, after 2 days of siRNA transfection", "conditions": "bacterial lipopolysaccharide (Salmonella minnesota R595), 10 ng/ml", "read-out": "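Nuclear mCherry signal of the Tnf promoter reporter measured by imaging after background removal, scaled to each plate median and turned into robust z-scores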", "reading the numbers": "Tnf reporter robust z-score: higher = stronger Tnf promoter reporter signal after LPS", "call rule": "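a well counts as active at a score of -1.3 or below (Tlr4 knock-down control median) or above 3 (raised signal); controls and wells holding fewer than 50 cells are excluded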", "meaning of the calls": "active = Tnf reporter clearly lowered or raised; inactive = no clear change in Tnf reporter", "note": "The whole screen tested about 17,000 reagents; shown is a random part of them. About 1,110 of them (6.6%) were called active. 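Active means lowered or raised reporter signal; replicate intensities are raw and not normalised per plate.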 Not all columns of the deposit are shown."}
{"gene": "Clock (GeneID 12753)", "Tnf reporter robust z-score": -0.32, "fewer than 50 cells in well": "enough cells in well", "call": "inactive"}
{"gene": "Clic4 (GeneID 29876)", "Tnf reporter robust z-score": 0.05, "fewer than 50 cells in well": "enough cells in well", "call": "inactive"}
{"gene": "Acox2 (GeneID 93732)", "Tnf reporter robust z-score": -1.61, "fewer than 50 cells in well": "enough cells in well", "call": "active"}
{"gene": "Dync1i1 (GeneID 13426)", "Tnf reporter robust z-score": -0.37, "fewer than 50 cells in well": "enough cells in well", "call": "inactive"}
{"gene": "Mfsd8 (GeneID 72175)", "Tnf reporter robust z-score": 0.72, "fewer than 50 cells in well": "enough cells in well", "call": "inactive"}
{"gene": "Klc2 (GeneID 16594)", "Tnf reporter robust z-score": -0.83, "fewer than 50 cells in well": "enough cells in well", "call": "inactive"}
{"gene": "Pdhx (GeneID 27402)", "Tnf reporter robust z-score": 0.02, "fewer than 50 cells in well": "enough cells in well", "call": "inactive"}
{"gene": "Inpp5j (GeneID 170835)", "Tnf reporter robust z-score": 0.08, "fewer than 50 cells in well": "enough cells in well", "call": "inactive"}
{"gene": "Slc27a2 (GeneID 26458)", "Tnf reporter robust z-score": -1.3, "fewer than 50 cells in well": "enough cells in well", "call": "active"}
{"gene": "Epsti1 (GeneID 108670)", "Tnf reporter robust z-score": 2.95, "fewer than 50 cells in well": "enough cells in well", "call": "inactive"}
{"gene": "Hook1 (GeneID 77963)", "Tnf reporter robust z-score": -0.44, "fewer than 50 cells in well": "enough cells in well", "call": "inactive"}
{"gene": "A930024E05Rik (GeneID 109202)", "Tnf reporter robust z-score": -0.52, "fewer than 50 cells in well": "enough cells in well", "call": "inactive"}
{"gene": "Pkp2 (GeneID 67451)", "Tnf reporter robust z-score": -1.62, "fewer than 50 cells in well": "enough cells in well", "call": "active"}

Active calls, among the entries above:
{"gene": "Acox2 (GeneID 93732)", "Tnf reporter robust z-score": -1.61, "fewer than 50 cells in well": "enough cells in well", "call": "active"}
{"gene": "Slc27a2 (GeneID 26458)", "Tnf reporter robust z-score": -1.3, "fewer than 50 cells in well": "enough cells in well", "call": "active"}
{"gene": "Pkp2 (GeneID 67451)", "Tnf reporter robust z-score": -1.62, "fewer than 50 cells in well": "enough cells in well", "call": "active"}

More records follow.
{"gene": "Yif1a (GeneID 68090)", "Tnf reporter robust z-score": 0.39, "fewer than 50 cells in well": "enough cells in well", "call": "inactive"}
{"gene": "Anapc5 (GeneID 59008)", "Tnf reporter robust z-score": 0.26, "fewer than 50 cells in well": "enough cells in well", "call": "inactive"}
{"gene": "Adra2a (GeneID 11551)", "Tnf reporter robust z-score": 0.04, "fewer than 50 cells in well": "enough cells in well", "call": "inactive"}
{"gene": "Zfp748 (GeneID 212276)", "fewer than 50 cells in well": "fewer than 50 cells per well; well left out of calls", "call": "inactive"}
{"gene": "Itln1 (GeneID 16429)", "fewer than 50 cells in well": "fewer than 50 cells per well; well left out of calls", "call": "inactive"}
{"gene": "Dedd (GeneID 21945)", "Tnf reporter robust z-score": 0.6, "fewer than 50 cells in well": "enough cells in well", "call": "inactive"}
{"gene": "Polg (GeneID 18975)", "Tnf reporter robust z-score": -0.74, "fewer than 50 cells in well": "enough cells in well", "call": "inactive"}
{"gene": "Hnrnpc (GeneID 15381)", "Tnf reporter robust z-score": 1.47, "fewer than 50 cells in well": "enough cells in well", "call": "inactive"}
